Measured values reported in article PMC8321694.
Numbering of substitutions follows the chain as printed. These are yes or no findings as the source states them, for the method shown. Binding calls can cover weak binding; strength is not graded here.

Legend:
[1] = molecular target: T1, LexA-Pol31 (wild-type, full length) (budding yeast) (UniProt P46957); test: two-hybrid; LexA bait (pGAL-LexA) and B42 prey (pJG4-7), lacZ reporter pSH18-34; 2% galactose for 6 h; quantitative liquid β-galactosidase assay of cell extracts; wild-type strain GA-1981 (endogenous Pol32 present)
T1 sequence: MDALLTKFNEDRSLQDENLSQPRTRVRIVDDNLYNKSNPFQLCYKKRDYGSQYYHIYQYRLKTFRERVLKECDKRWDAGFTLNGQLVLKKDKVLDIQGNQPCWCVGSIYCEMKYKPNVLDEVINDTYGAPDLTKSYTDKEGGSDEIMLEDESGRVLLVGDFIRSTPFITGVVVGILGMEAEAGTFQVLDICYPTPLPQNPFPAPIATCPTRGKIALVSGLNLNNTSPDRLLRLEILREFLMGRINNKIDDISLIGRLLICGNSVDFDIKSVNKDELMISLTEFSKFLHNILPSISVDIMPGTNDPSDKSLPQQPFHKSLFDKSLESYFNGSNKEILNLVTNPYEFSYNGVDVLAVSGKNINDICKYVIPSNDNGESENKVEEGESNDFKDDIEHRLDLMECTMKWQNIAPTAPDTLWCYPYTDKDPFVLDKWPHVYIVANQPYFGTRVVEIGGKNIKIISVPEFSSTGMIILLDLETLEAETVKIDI

[2] = molecular target: T2, LexA-Pol31-W417A (budding yeast) (UniProt P46957); test: as above
T2 sequence: T1 sequence with W417A

[3] = molecular target: T1, LexA-Pol31 (wild-type, full length) (budding yeast); test: two-hybrid; LexA bait (pGAL-LexA) and B42 prey (pJG4-7), lacZ reporter pSH18-34; 2% galactose for 6 h; quantitative liquid β-galactosidase assay of cell extracts; pol32Δ strain GA-6292 (no endogenous Pol32)
[4] = molecular target: T2, LexA-Pol31-W417A (budding yeast); test: as above

binding [1]: binds | binding [2]: binds | binding [3]: binds | binding [4]: binds
Substance: Rev3 CTD, two-hybrid fusion (budding yeast) (domain or fragment)
